Measurements taken from paper PMC6303327.
The exact form of at least one protein or probe is not confirmed.

Chains of the proteins cited; added tags and fusions are not shown. A line that says so, or that is headed by a name, gives the form on record, which may keep a tag or linker.
ScRPA S178D (phosphomimetic) (Saccharomyces cerevisiae), one chain, as listed by the source S178D, chain 1 of 3: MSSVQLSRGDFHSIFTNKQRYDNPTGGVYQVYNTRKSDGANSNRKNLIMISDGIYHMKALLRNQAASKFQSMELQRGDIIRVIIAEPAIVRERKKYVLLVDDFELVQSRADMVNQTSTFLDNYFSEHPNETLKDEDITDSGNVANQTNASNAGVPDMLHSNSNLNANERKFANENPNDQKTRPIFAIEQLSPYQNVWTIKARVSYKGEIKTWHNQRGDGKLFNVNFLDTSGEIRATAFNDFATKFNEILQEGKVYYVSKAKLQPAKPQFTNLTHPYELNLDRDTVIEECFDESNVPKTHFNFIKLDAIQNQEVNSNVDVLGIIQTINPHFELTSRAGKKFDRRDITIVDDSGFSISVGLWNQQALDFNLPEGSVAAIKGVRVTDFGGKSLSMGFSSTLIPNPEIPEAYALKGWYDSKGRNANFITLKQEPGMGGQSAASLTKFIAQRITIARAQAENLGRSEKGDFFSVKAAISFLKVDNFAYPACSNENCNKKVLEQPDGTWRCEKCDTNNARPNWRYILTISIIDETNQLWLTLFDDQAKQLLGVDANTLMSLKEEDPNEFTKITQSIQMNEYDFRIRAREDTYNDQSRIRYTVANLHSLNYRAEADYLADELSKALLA

Test system: ScRPA S178D (phosphomimetic) (Saccharomyces cerevisiae)
Assay: FRET titration
Conditions: FRET: reaction buffer not given, 10 nM DNA, recombinant protein, protein details: TEV-cleavable His6 on Rfa1, single-stranded DNA

## TTTTTTTTTTTTTTTTTTTTTTTTTTTTTTTTTTTTTTTTTTTTTTTTTTTTTTTTTTTTTTTTTTTTTTTTTTTTTTTTTTTTTTTTTT [dT90(1-30)]
Hill n 1.6 ± 0.2, substrate assigned from figure text order, internal Cy3 in backbone, label: 5' Cy5, Cy3 after nt 29
  Kd: 78.6 nM

## TTTTTTTTTTTTTTTTTTTTTTTTTTTTTTTTTTTTTTTTTTTTTTTTTTTTTTTTTTTTTTTTTTTTTTTTTTTTTTTTTTTTTTTTTT [dT90(5-35)]
Hill n 1.6 ± 0.2, substrate assigned from figure text order, internal dyes in backbone, label: Cy5 after nt 4, Cy3 30 nt downstream
  Kd: 58.3 nM

## TTTTTTTTTTTTTTTTTTTTTTTTTTTTTTTTTTTTTTTTTTTTTTTTTTTTTTTTTTTTTTTTTTTTTTTTTTTTTTTTTTTTTTTTTT [dT90(11-41)]
Hill n 2.1 ± 0.2, substrate assigned from figure text order, internal dyes in backbone, label: Cy5 after nt 10, Cy3 30 nt downstream
  Kd: 65.5 nM
